For two molecules, inhibition results are on record in PubChem BioAssay AID651954 (NMMLSC, 2012).

In all, about 1,500 compounds went through this assay and about 160 (11%) were called active. Rule as the data show it: active = inhibition above about 60%; inactive = the rest. The list shows a part of the results, in another mix than the full data.

This assay can be described thus: inhibitors of lytic granule exocytosis, confirmation, TALL-104 cells, flow cytometry, Cherry Pick01 (AID 651954).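 Also: 0% = stimulated vehicle wells and 100% = unstimulated wells.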 To be noted: LAMP-1 externalization, at 10 µM, hits give high values.
With `COc1ccc(Br)cc1CNCCc1cccc(Cl)c1`, the inhibition is inactive: -1.41%.
Then `CCOC(=O)[C@]12Cc3ccccc3[C@H]1N(C1CCCCC1)C(=O)c1cc(OC)ccc12`, with inactive: 5.33%.
